Results deposited as PubChem BioAssay AID743458 (Peter MacCallum Cancer Centre, 2014).

Purpose: 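Find knock-downs that make vorinostat-resistant colon cancer cells sensitive again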 (follow-up of hits)
System: human HCT116-VR colon cancer cells made resistant to vorinostat
Reagents: single siRNA or pool against human genes, 25 nM per single siRNA
Time to read-out: about 72 h after transfection, including 24 h of drug
Conditions: vorinostat, 2.5 µM final, for 24 h
Read-out: 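Live-cell fluorescent viability and luminescent caspase 3/7 activity after vorinostat treatment, background subtracted, mean of duplicate plates, as fold change over mock-transfected wells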
Direction: viability relative to mock: higher = more living cells than mock; caspase activity relative to mock: higher = more apoptosis than mock
Call rule: 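An siRNA counts as active if classed as reduced viability or as caspase activation, otherwise inactive; a hit class needed wells that remained healthy in the absence of drug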
In all, the deposit lists about 1,800 reagents; this is a part drawn at random. 732 of all reagents (41%) were called active. 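Calls are per siRNA reagent; a gene was deemed confirmed only if most of its four siRNAs scored.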 Reagents against one gene are numbered here. Reagent sequences are not shown.

no.	target	reagent no.	viability relative to mock	caspase activity relative to mock	viability hit class	caspase hit class	Outcome
1	TRPM4	1	0.79	4.43	no change	caspase activation	active
2	TRPM4	2	0.94	0.9	no change	no change	inactive
3	TRPM4	3	0.94	1.04	no change	no change	inactive
4	TRPM4	4	0.99	1.38	no change	no change	inactive
5	SLC7A1	1	0.75	1.01	no change	no change	inactive
6	SLC7A1	2	0.77	2.05	no change	no change	inactive
7	SLC7A1	3	0.64	2.22	no change	no change	inactive
8	SLC7A1	4	0.44	1.47	reduced viability	no change	active
9	NRIP2 (nuclear receptor interacting protein 2)	1	0.94	5.4	no change	caspase activation	active
10	NRIP2 (nuclear receptor interacting protein 2)	2	0.86	1.67	no change	no change	inactive
11	NRIP2 (nuclear receptor interacting protein 2)	3	0.79	1.12	no change	no change	inactive
12	NRIP2 (nuclear receptor interacting protein 2)	4	0.1	4.19	no change	no change	inactive
13	GPR152 (G protein-coupled receptor 152)	1	0.73	2.5	no change	no change	inactive
14	GPR152 (G protein-coupled receptor 152)	2	1.05	1.56	no change	no change	inactive
15	GPR152 (G protein-coupled receptor 152)	3	0.68	1.65	no change	no change	inactive
16	GPR152 (G protein-coupled receptor 152)	4	0.64	3.91	no change	caspase activation	active
17	C16orf54 (chromosome 16 open reading frame 54)	1	0.9	1.59	no change	no change	inactive
18	C16orf54 (chromosome 16 open reading frame 54)	2	0.81	3.1	no change	caspase activation	active
19	C16orf54 (chromosome 16 open reading frame 54)	3	0.3	2.35	no change	no change	inactive
20	C16orf54 (chromosome 16 open reading frame 54)	4	0.86	2.7	no change	caspase activation	active
21	SERPINB13 (serpin family B member 13)	1	1.04	1.31	no change	no change	inactive
22	SERPINB13 (serpin family B member 13)	2	0.92	1.19	no change	no change	inactive
23	SERPINB13 (serpin family B member 13)	3	0.71	1.58	no change	no change	inactive
24	SERPINB13 (serpin family B member 13)	4	0.24	3.62	reduced viability	caspase activation	active
25	AOC1 (amine oxidase copper containing 1)	1	0.75	1	no change	no change	inactive
26	AOC1 (amine oxidase copper containing 1)	2	0.84	0.74	no change	no change	inactive
27	AOC1 (amine oxidase copper containing 1)	3	0.94	0.97	no change	no change	inactive
28	AOC1 (amine oxidase copper containing 1)	4	0.82	1.64	no change	no change	inactive
29	LCE3C (late cornified envelope 3C)	1	1.02	3.71	no change	caspase activation	active
30	LCE3C (late cornified envelope 3C)	2	0.67	1.97	no change	no change	inactive
31	LCE3C (late cornified envelope 3C)	3	0.39	2.29	no change	no change	inactive
32	LCE3C (late cornified envelope 3C)	4	0.67	4.67	no change	caspase activation	active
33	TRIM59 (tripartite motif containing 59)	1	0.76	2.5	no change	no change	inactive
34	TRIM59 (tripartite motif containing 59)	2	0.8	1.73	no change	no change	inactive
35	TRIM59 (tripartite motif containing 59)	3	0.86	0.97	no change	no change	inactive
36	TRIM59 (tripartite motif containing 59)	4	0.98	1.21	no change	no change	inactive
37	PPIL2 (peptidylprolyl isomerase like 2)	1	0.95	1.1	no change	no change	inactive
38	PPIL2 (peptidylprolyl isomerase like 2)	2	0.56	0.72	reduced viability	no change	active
39	PPIL2 (peptidylprolyl isomerase like 2)	3	0.84	1.35	no change	no change	inactive
40	PPIL2 (peptidylprolyl isomerase like 2)	4	1.03	1.32	no change	no change	inactive

Only “caspase activity relative to mock” (4 entries from above):
GPR152 (G protein-coupled receptor 152) #3: 1.65
GPR152 (G protein-coupled receptor 152) #4: 3.91
C16orf54 (chromosome 16 open reading frame 54) #1: 1.59
C16orf54 (chromosome 16 open reading frame 54) #2: 3.1
